The target of assay [1] is NOD2 (human (endogenous in THP-1)) (UniProt Q9HC29). Description: condition: only mock cells (neither infected with DENV-2 nor transfected with PIC); co-IP; 150 µg of RIPA lysate of mock (untreated) THP-1 macrophage-like cells; anti-NOD2 antibody (2 µg) overnight at 4 °C, protein A agarose, eight washes with PBS; immunoblot with anti-MAVS.
For assay [2] the target is unchanged. Put plainly: co-IP; 150 µg of RIPA lysate of THP-1 macrophage-like cells infected with DENV-2 (MOI 10) or transfected with PIC, 12 h; anti-NOD2 antibody (2 µg) overnight at 4 °C, protein A agarose, eight washes with PBS; immunoblot with anti-MAVS.

Chains of the proteins cited; added tags and fusions are not shown.
UniProt Q9HC29: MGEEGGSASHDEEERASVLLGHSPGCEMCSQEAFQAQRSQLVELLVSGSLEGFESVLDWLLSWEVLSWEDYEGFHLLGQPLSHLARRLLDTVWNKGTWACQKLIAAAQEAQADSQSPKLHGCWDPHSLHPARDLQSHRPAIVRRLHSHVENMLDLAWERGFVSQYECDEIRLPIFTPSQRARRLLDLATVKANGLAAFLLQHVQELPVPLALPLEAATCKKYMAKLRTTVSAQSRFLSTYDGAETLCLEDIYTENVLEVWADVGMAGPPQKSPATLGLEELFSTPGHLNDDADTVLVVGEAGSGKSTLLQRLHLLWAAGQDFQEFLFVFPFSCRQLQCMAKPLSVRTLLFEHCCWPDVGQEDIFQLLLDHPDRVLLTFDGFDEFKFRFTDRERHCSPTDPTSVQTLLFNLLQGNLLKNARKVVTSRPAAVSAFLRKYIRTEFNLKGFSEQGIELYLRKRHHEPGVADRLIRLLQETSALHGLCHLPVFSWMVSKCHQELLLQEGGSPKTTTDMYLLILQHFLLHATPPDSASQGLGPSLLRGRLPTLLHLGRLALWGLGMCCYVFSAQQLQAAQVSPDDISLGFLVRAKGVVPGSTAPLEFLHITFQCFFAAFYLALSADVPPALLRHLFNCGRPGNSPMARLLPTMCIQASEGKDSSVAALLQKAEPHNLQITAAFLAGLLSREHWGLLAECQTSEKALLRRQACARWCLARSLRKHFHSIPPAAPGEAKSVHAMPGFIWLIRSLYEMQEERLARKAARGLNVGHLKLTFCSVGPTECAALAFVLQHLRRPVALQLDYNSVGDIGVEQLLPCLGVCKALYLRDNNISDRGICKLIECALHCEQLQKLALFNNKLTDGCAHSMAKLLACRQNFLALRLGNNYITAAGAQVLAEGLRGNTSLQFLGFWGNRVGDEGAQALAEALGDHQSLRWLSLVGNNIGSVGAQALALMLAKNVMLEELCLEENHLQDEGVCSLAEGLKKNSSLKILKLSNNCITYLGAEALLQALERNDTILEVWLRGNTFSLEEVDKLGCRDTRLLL
UniProt Q7Z434: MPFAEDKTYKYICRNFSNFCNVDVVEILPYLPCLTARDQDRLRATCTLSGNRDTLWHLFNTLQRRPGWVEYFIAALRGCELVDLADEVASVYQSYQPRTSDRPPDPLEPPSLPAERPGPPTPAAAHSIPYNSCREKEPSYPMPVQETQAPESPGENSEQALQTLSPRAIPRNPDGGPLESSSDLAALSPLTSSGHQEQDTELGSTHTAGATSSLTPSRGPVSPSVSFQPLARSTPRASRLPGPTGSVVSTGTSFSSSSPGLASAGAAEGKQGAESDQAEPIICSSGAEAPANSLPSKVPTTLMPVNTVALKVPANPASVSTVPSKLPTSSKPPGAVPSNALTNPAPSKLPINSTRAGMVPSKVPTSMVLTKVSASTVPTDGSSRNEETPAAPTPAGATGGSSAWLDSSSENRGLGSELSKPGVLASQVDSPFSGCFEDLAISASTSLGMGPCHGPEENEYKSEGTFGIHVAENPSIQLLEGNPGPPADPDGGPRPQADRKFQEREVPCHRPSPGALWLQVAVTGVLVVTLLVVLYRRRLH

These are yes or no findings as the source states them, for the method shown. Binding seen in cells or lysates may run through a third protein. Some entries that bind do so weakly or less than the wild type.

Turning to “MAVS (mitochondrial antiviral signaling protein) (from UniProt Q7Z434 1-540)”, the binding result in assay [1] is reported as “no binding”; in assay [2], “binds”.

The values above are taken from paper PMC11054756.
